The source of these data is publication PMC12095075.

Sequences of proteins named here, by UniProt entry; tags and fusion partners are left off. A change or cut given only in a name is not applied to a line headed by its entry. A line that says so, or that is headed by a name, gives the form on record, which may keep a tag or linker. Residues count along the entry.
UniProt Q16665: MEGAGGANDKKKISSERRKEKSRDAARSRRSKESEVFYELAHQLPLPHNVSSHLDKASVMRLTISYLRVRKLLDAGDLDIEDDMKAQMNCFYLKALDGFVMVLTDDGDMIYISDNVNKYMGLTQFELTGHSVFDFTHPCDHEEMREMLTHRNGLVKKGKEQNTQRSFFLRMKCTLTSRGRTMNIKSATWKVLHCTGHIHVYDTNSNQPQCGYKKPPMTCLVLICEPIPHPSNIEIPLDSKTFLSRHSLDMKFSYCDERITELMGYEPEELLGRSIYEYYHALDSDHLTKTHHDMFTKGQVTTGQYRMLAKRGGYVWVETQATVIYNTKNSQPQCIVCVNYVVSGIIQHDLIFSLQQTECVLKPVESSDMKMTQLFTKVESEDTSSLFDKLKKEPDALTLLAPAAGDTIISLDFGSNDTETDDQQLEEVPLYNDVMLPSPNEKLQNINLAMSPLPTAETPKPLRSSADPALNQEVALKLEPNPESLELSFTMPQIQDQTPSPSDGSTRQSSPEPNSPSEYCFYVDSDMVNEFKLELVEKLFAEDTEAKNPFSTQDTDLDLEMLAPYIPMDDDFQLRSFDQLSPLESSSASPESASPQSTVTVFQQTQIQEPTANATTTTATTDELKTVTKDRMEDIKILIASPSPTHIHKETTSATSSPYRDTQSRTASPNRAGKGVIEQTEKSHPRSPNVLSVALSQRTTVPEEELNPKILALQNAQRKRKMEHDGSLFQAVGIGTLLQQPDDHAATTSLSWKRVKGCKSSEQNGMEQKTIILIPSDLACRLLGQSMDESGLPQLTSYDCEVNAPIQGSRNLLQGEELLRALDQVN
UniProt Q99814: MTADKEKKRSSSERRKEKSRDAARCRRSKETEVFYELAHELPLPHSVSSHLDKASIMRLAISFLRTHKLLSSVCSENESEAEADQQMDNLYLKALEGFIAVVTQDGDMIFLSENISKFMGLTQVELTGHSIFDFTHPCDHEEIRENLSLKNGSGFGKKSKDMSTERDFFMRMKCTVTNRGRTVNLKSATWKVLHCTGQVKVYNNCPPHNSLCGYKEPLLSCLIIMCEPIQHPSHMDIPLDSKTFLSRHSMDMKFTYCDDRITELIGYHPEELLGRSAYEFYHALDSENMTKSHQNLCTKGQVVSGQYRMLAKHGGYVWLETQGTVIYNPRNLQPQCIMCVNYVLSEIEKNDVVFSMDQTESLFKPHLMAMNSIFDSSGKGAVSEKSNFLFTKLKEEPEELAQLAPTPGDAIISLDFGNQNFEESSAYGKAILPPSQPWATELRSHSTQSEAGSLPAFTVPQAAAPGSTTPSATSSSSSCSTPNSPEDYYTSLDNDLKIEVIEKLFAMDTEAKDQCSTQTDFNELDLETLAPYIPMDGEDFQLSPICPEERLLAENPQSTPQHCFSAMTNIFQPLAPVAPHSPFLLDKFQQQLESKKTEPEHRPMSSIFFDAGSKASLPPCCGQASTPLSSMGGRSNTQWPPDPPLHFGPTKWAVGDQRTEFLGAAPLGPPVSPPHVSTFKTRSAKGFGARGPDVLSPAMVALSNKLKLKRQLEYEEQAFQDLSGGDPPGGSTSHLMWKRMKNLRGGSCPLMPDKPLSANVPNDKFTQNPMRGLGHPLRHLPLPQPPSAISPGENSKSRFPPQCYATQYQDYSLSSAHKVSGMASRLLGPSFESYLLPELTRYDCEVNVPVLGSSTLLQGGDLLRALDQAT
BMAL1–Flag (pcDNA3-mBmal1) (Q9WTL8, form named): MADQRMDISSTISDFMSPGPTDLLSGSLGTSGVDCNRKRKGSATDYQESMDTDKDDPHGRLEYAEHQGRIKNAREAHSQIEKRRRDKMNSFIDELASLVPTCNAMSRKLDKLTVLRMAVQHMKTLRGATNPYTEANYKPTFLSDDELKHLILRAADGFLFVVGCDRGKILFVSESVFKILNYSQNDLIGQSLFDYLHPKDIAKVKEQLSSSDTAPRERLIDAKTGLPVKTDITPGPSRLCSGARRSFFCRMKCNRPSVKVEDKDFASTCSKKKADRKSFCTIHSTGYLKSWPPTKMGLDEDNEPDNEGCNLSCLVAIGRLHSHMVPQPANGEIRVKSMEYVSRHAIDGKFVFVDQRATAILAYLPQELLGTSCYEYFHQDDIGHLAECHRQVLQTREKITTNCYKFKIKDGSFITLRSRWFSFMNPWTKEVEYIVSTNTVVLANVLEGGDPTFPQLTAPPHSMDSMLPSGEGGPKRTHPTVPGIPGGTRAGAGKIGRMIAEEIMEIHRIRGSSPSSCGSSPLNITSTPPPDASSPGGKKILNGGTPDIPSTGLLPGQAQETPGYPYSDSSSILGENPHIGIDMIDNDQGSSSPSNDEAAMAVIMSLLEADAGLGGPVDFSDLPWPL
N-terminal region of mouse BMAL1 protein (residues 68–488) with a C-terminal Flag tag (Q9WTL8, form named): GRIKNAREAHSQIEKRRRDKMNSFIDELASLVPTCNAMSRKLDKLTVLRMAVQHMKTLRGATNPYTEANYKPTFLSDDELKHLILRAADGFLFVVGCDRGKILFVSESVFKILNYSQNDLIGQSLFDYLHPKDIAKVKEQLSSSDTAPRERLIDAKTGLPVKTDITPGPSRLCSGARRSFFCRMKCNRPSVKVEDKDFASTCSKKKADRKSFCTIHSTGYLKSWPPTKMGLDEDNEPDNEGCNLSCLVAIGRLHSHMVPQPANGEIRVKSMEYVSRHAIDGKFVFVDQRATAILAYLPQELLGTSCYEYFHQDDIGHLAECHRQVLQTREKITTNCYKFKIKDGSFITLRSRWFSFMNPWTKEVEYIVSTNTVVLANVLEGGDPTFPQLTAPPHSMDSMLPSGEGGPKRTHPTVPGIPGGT
UniProt O00327: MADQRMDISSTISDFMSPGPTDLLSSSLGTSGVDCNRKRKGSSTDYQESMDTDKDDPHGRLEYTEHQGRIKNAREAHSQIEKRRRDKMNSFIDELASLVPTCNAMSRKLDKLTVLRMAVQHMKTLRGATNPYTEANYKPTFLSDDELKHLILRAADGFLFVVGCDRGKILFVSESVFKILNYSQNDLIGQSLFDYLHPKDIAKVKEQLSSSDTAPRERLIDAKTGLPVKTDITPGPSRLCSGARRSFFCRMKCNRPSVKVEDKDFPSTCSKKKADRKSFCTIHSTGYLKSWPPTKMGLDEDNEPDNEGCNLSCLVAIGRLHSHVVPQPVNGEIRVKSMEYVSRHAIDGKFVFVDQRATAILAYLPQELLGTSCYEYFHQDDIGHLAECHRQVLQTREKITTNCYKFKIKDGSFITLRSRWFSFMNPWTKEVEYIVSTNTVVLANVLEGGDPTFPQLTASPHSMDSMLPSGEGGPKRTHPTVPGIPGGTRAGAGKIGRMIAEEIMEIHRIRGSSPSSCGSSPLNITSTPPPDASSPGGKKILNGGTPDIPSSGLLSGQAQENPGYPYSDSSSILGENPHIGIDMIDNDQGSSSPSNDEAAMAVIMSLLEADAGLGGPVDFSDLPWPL
UniProt Q61221: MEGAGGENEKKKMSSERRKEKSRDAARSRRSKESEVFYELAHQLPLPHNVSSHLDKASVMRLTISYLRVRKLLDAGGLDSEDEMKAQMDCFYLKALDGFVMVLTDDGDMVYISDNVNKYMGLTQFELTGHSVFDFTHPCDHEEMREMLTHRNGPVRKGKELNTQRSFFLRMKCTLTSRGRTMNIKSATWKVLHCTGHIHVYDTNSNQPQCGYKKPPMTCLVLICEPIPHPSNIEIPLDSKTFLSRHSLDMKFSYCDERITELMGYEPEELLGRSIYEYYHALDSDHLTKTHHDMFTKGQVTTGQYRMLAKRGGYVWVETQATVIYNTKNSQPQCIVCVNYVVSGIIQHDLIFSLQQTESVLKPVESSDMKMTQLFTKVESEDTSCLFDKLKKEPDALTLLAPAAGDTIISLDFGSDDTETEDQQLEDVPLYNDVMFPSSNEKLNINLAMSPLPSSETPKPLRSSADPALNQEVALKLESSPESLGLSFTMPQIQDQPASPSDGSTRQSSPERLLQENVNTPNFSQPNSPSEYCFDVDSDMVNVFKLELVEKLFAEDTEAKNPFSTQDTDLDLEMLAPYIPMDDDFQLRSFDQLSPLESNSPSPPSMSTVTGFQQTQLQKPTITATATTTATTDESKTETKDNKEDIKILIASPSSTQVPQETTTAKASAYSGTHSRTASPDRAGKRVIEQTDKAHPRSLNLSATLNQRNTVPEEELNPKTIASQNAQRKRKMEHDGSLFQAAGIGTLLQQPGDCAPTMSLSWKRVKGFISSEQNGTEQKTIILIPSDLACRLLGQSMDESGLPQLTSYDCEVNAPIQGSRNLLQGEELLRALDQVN

Results are given in words; binding and its absence hold for the method and conditions named. For part of these data: Binding seen in cells or lysates may run through a third protein. Some entries that bind do so weakly or less than the wild type.

Test [1] addresses HIF1A, endogenous in primary human cardiomyocytes (human (endogenous in primary human cardiomyocytes)) (UniProt Q16665). Put plainly: proximity ligation; fixed primary human cardiomyocytes after hypoxia (1% O2; 0, 1, 4 or 8 h); rabbit anti-BMAL1 with mouse anti-HIF2A or mouse anti-HIF1A; Duolink probes.
Test [2] has as its target HIF2A, endogenous in primary human cardiomyocytes (human (endogenous in primary human cardiomyocytes)) (UniProt Q99814). The test is described as above.
Test [3] shares this target. Put plainly: co-IP; endogenous proteins of primary human cardiomyocytes; hypoxia (1% O2) for 0-8 h, or 4 h at CT20 and CT32 after dexamethasone synchronisation; IP with anti-HIF2A; western blot. A general note: A western blot detects proteins with antibodies after separation by electrophoresis.
For test [4], the target named is BMAL1–Flag (pcDNA3-mBmal1) (mouse) (UniProt Q9WTL8). The experiment in a line: co-IP; HEK293 cells overexpressing BMAL1-Flag (pcDNA3-mBmal1), normoxia or hypoxia (1% O2, 4 h); cytoplasmic and nuclear fractions; IP with anti-Flag (reciprocal IP with anti-HIF2A in Extended Data Fig. 2b); western blot.
Test [5] concerns the target N-terminal region of mouse BMAL1 protein (residues 68–488) with a C-terminal Flag tag (mouse) (UniProt Q9WTL8). Put plainly: pull-down; BMAL1-Flag captured from E. coli lysate on anti-Flag M2 beads and washed; purified His-HIF2A or His-HIF1A added, 40 min at 4 °C; 20 mM HEPES pH 7.4, 10% glycerol, 0.01% Triton X-100, 300 mM NaCl, 5 mM MgCl2, 1 mM DTT; eluted with Flag peptide; blots anti-Flag and anti-His; both purified.

Turning to “BMAL1, endogenous in primary human cardiomyocytes (from UniProt O00327 1-626)”, the binding entry in test [1], in test [2] and in test [3] was “binds” in each case.

Consider “HIF1A, endogenous in HEK293 cells (from UniProt Q16665 1-826)”, for which the binding entry in test [4] is “binds weakly”.

“N-terminal portion of mouse HIF1A (residues 13–357) with a 6×His tag at the N terminus (from UniProt Q61221 13-357) (domain or fragment)”: the binding result in test [5] is on record as “binds weakly”.

With “hypoxia-inducible factor 2 alpha (HIF2A), endogenous in HEK293 cells (from UniProt Q99814 1-870)”, the binding result in test [4] is “binds”.
